Measurements reported in patent EP0378881B1 ([…] S.p.A., priority 1989, dated 1993).

Assay: general procedure: Fmoc solid-phase peptide synthesis in flow; resin with 4-hydroxymethylphenoxyacetate handle
Settings: whole synthesis, scale of the general procedure 1.5 g of resin per column (two columns)

Gln-Tyr-Ile-Lys-Ala-Asn-Ser-Lys-Phe-Ile-Gly-Ile-Thr-Glu (QYIKANSKFIGITE; printed: Gln-Tyr-Ile-Lys-Ala-Asn-Ser-Lys-Phe-Ile-Gly-Ile-Thr-Glu)
crude yield: Yield 93%
